Laboratory results as given in publication PMC9568463.
These are yes or no findings as the source states them, for the method shown. In cells and extracts the contact can be indirect. Some binding calls cover weakened binding; strength is not graded here.

The chains behind the UniProt entries cited, without tags or fusion partners.
UniProt O95714: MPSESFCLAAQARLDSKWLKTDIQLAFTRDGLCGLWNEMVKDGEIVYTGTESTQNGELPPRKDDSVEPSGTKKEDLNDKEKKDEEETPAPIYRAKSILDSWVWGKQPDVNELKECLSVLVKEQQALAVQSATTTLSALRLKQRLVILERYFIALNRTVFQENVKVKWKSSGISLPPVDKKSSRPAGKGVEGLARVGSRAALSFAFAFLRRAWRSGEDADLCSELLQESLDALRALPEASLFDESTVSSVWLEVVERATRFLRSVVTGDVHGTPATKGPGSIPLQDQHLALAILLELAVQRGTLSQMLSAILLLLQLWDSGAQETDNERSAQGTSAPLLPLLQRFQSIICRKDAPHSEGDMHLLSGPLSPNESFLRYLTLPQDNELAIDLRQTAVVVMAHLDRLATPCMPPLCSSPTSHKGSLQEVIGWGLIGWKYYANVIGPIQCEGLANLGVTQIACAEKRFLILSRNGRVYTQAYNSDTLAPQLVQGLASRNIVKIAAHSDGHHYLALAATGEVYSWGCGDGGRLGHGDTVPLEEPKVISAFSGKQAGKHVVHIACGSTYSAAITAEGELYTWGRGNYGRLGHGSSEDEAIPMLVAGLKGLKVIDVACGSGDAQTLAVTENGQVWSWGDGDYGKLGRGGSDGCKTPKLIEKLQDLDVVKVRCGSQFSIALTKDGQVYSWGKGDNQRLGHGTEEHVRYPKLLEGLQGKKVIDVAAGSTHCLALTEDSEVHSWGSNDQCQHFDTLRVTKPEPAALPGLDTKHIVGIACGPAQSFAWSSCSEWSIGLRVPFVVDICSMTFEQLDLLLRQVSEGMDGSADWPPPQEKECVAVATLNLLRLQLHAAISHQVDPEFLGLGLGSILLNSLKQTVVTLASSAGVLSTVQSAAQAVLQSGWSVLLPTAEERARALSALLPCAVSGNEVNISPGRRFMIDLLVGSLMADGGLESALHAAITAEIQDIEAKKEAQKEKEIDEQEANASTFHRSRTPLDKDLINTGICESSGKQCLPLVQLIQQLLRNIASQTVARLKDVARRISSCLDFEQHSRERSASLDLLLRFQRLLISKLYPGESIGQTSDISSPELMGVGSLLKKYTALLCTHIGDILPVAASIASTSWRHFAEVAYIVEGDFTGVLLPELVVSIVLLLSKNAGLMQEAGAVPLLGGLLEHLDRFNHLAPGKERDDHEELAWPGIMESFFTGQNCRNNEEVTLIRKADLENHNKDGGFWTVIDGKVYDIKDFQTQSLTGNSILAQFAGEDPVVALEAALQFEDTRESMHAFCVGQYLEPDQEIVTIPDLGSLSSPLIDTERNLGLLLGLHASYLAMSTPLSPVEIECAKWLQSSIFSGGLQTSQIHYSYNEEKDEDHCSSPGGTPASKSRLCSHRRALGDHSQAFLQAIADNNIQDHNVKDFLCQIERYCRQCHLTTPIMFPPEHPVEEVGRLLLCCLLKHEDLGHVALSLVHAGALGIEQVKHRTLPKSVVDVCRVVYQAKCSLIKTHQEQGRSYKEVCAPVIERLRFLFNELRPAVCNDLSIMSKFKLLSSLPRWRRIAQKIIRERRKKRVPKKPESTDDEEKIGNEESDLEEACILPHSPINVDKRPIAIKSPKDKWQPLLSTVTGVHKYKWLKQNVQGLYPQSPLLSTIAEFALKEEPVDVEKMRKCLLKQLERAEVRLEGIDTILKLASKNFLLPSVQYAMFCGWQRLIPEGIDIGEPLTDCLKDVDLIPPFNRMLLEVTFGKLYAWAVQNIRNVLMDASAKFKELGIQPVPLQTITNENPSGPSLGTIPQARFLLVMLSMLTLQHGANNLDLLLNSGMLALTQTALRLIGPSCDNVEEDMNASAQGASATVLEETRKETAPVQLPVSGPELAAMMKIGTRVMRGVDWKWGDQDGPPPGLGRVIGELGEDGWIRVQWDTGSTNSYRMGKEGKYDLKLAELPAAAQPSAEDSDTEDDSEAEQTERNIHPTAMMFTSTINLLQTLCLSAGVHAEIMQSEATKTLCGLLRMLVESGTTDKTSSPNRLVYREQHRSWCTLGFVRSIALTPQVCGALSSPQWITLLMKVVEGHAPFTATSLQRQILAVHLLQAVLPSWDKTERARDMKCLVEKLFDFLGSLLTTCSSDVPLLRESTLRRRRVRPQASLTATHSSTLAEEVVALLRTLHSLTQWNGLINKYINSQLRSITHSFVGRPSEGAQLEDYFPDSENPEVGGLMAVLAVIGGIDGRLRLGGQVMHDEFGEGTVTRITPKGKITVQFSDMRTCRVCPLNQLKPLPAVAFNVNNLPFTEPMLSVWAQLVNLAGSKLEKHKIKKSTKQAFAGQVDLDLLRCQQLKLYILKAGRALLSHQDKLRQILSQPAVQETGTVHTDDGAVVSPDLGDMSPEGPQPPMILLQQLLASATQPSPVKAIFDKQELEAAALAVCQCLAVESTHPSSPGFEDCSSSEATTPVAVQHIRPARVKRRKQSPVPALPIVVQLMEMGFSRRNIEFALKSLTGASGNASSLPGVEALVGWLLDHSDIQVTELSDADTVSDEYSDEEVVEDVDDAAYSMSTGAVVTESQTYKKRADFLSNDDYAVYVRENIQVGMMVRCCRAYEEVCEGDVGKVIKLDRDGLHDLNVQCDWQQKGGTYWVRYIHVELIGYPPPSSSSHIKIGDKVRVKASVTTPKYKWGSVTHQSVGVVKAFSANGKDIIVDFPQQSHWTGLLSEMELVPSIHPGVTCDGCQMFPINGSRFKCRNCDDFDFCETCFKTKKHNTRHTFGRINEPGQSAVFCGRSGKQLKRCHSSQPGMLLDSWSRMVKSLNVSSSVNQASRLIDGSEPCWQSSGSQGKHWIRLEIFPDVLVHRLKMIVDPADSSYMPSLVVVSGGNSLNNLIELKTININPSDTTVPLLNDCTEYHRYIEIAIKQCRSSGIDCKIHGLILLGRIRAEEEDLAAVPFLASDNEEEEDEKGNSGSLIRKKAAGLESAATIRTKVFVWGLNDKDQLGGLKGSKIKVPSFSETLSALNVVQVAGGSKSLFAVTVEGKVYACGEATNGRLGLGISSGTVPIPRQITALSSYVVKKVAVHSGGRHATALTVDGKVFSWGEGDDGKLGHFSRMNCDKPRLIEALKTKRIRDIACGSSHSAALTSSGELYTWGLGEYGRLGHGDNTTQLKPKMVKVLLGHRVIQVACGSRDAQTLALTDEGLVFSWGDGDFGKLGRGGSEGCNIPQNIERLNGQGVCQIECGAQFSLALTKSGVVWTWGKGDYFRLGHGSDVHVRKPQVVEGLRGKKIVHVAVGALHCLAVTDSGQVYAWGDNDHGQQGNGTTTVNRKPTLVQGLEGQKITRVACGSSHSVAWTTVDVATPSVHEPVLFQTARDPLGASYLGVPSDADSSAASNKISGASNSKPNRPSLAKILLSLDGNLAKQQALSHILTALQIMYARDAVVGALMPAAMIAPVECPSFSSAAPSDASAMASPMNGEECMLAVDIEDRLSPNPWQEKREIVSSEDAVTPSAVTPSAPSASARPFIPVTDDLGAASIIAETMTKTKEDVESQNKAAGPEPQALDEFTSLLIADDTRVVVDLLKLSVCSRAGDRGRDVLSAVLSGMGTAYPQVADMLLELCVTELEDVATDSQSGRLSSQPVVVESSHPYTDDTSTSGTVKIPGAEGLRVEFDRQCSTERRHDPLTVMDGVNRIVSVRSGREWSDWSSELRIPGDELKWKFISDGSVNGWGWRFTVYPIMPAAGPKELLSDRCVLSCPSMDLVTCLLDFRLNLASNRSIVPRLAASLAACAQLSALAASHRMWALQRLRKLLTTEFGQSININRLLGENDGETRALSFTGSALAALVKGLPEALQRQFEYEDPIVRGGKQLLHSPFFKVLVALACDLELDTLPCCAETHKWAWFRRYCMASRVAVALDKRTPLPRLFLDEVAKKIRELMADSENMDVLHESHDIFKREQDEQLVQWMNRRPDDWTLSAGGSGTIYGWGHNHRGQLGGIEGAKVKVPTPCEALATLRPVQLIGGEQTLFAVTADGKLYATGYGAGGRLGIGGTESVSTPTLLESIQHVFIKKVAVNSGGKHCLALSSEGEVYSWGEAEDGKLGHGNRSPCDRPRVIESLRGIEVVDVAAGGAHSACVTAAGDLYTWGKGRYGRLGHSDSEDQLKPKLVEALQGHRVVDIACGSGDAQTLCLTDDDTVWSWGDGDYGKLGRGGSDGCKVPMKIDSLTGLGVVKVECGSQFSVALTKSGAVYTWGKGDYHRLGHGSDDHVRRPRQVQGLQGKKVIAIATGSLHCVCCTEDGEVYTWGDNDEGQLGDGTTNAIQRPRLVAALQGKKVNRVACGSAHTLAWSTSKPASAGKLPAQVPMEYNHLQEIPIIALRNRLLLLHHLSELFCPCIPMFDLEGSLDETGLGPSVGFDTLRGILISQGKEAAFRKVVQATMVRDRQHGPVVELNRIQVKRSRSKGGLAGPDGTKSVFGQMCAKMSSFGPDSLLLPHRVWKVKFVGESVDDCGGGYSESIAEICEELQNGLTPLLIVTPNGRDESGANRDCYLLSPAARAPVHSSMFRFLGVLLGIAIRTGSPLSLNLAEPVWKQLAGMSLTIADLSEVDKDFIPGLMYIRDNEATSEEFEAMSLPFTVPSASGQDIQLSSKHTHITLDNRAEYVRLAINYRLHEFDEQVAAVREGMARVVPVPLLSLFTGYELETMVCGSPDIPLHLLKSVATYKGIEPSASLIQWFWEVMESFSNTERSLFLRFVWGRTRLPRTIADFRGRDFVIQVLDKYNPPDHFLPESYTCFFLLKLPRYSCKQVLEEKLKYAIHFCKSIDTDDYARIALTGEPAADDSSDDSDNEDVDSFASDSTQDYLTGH
UniProt P15056: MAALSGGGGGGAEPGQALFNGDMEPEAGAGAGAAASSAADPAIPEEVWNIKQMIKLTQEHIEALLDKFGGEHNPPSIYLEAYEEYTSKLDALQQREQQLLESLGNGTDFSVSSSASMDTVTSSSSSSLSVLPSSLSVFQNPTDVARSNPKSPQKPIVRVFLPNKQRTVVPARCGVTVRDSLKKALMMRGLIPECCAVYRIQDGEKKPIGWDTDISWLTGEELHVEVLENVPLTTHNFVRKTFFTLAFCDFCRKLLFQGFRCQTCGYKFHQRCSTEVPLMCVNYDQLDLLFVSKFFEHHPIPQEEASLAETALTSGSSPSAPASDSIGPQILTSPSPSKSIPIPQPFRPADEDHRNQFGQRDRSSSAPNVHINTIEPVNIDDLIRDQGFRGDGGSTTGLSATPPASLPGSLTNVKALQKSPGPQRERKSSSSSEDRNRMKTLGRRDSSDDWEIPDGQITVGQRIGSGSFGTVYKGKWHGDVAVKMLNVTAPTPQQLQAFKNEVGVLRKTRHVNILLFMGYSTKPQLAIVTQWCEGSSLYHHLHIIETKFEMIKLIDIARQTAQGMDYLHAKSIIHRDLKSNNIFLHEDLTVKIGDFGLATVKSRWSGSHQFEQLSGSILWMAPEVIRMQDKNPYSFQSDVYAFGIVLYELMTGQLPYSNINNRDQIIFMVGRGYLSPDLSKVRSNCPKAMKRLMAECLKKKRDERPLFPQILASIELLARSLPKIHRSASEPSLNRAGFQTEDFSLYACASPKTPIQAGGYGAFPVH

Columns and labels:
[1] = target: HERC2 (HECT and RCC1-like domain 2), endogenous (human (endogenous in U2OS and HEK 293T)) (UniProt O95714); test: co-IP; U2OS lysates in CHAPS buffer (10 mM Tris-HCl pH 7.5, 100 mM NaCl, 0.3% CHAPS); anti-HERC2 polyclonal antibody bvg3, 2 h at 4 °C, protein A-Sepharose; pre-immune serum as negative control; immunoblot of endogenous proteins
[2] = target: HERC2 (HECT and RCC1-like domain 2), endogenous (human (endogenous in U2OS and HEK 293T)) (UniProt O95714); test: co-IP; HEK 293T lysates in CHAPS buffer (10 mM Tris-HCl pH 7.5, 100 mM NaCl, 0.3% CHAPS); anti-HERC2 polyclonal antibody bvg3, 2 h at 4 °C, protein A-Sepharose; pre-immune serum as negative control; immunoblot of endogenous proteins
[3] = target: GFP-C-RAF fusion protein, full-length (UniProt P04049); test: pull-down; GFP pull-down: lysates of co-transfected HEK 293T cells incubated with GFP-TrapA (ChromoTek) for 2 h at 4 °C, washed five times with CHAPS buffer; GFP fusion held on the beads; immunoblot

Substance	binding [1]	binding [2]	binding [3]
B-RAF, endogenous (from UniProt P15056 1-766)	binds	binds	
C-RAF, endogenous (from UniProt P04049 1-648)	binds	binds	
Flag-HERC2 full-length fusion protein (from UniProt O95714 1-4834)			binds
HERC1, endogenous (from UniProt Q15751 1-4861)	no binding	no binding	
